Measurements reported in PubChem BioAssay AID1159578 (Peter MacCallum Cancer Centre, 2015).

- Aim: 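Genome-wide hunt for genes controlling movement of lymphatic endothelial cells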 (primary screen)
- System: human lymphatic endothelial cells
- Knock-down reagent: siRNA pool against human genes, 40 nM
- Duration: 48 h after transfection
- Detection: 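Cells stained with dye and imaged after a scratch; covered wound area and nuclei counted, duplicates averaged, migration set against mock wells and turned into a robust z-score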
- Direction: migration robust z-score: higher = faster migration into the scratch; nuclei per well: higher = more cells in the well
- Rule for the call: 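Pools averaging fewer than 3300 nuclei are never called; remaining pools count as changed when migration robust z lies outside -2 to 2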
- Meaning of the calls: active = migration changed; inactive = no migration change, or too few cells
In all, the deposit lists about 18,000 reagents; this is a part drawn at random. About 1,030 of all reagents (5.7%) count as active. 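Inactive calls also include pools with fewer than 3300 nuclei, whose migration was not assessed.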 Raw values are not corrected between plates. Further read-outs or replicates are left out here.

SRRM3 (serine/arginine repetitive matrix 3) [SID255364334] scored migration robust z-score -0.92; migration class with cell-count check migration z between -2 and 2; enough cells; nuclei per well, duplicate mean 5166; inactive. Against GAK (cyclin G associated kinase) [SID255349812] the deposit lists migration robust z-score 0.16; migration class with cell-count check migration z between -2 and 2; enough cells; nuclei per well, duplicate mean 5198; inactive. ARL2BP (ARF like GTPase 2 binding protein) [SID255356338] scored migration robust z-score 1.19; migration class with cell-count check migration z between -2 and 2; enough cells; nuclei per well, duplicate mean 6500; inactive. With knock-down of JUN (Jun proto-oncogene, AP-1 transcription factor subunit) [SID255350578], the record shows migration robust z-score -2.23; migration class with cell-count check migration z below -2; enough cells; nuclei per well, duplicate mean 4072; active. After knock-down of NLRX1 (NLR family member X1) [SID255360376], the record shows migration robust z-score 0.71; migration class with cell-count check migration z between -2 and 2; enough cells; nuclei per well, duplicate mean 4178; inactive. CACNG2 (calcium voltage-gated channel auxiliary subunit gamma 2) [SID255355026] gave migration robust z-score -0.83; migration class with cell-count check migration z between -2 and 2; enough cells; nuclei per well, duplicate mean 4076; inactive.

ABHD8 (abhydrolase domain containing 8) [SID255360306] gave migration robust z-score 1.66; migration class with cell-count check migration z between -2 and 2; enough cells; nuclei per well, duplicate mean 5732; inactive.

Looked up above.
JUN (Jun proto-oncogene, AP-1 transcription factor subunit) [SID255350578], migration robust z-score: -2.23
ARL2BP (ARF like GTPase 2 binding protein) [SID255356338], nuclei per well, duplicate mean = 6500

The listing continues.
Against KDELR1 (KDEL endoplasmic reticulum protein retention receptor 1) [SID255355467], the entry reads migration robust z-score 0; migration class with cell-count check migration z between -2 and 2; enough cells; nuclei per well, duplicate mean 5712; inactive. Against CFAP157 (cilia and flagella associated protein 157) [SID255364908], the entry reads migration robust z-score -1.2; migration class with cell-count check migration z between -2 and 2; enough cells; nuclei per well, duplicate mean 5758; inactive. Against IMMT (inner membrane mitochondrial protein) [SID255355504] the deposit lists migration robust z-score 0.37; migration class with cell-count check migration z between -2 and 2; enough cells; nuclei per well, duplicate mean 6324; inactive. After knock-down of KNG1 (kininogen 1) [SID255350661], the record shows migration robust z-score 0.73; migration class with cell-count check migration z between -2 and 2; enough cells; nuclei per well, duplicate mean 4768; inactive. Against PFN3 (profilin 3) [SID255365193], the values are migration robust z-score -3.21; migration class with cell-count check under 3300 nuclei; migration not judged; nuclei per well, duplicate mean 1617; inactive. GFI1B (growth factor independent 1B transcriptional repressor) [SID255353473] gave migration robust z-score -0.37; migration class with cell-count check migration z between -2 and 2; enough cells; nuclei per well, duplicate mean 5668; inactive.

For SLC36A4 [SID255362489] the deposit lists migration robust z-score 0.42; migration class with cell-count check migration z between -2 and 2; enough cells; nuclei per well, duplicate mean 6168; inactive.
